Test results reported in the supplement of paper PMC6411743.
± gives the standard deviation of the averaged measurements. The entries are a selection whose mix differs from that of the whole data set. Most entries show no effect beyond the scatter of the controls.

By UniProt entry, the sequences of proteins in these tests, tags left out. Where a name states a change or a piece, a line headed by the entry shows the natural chain unless it says otherwise.
UniProt Q9BTK6, whole entry: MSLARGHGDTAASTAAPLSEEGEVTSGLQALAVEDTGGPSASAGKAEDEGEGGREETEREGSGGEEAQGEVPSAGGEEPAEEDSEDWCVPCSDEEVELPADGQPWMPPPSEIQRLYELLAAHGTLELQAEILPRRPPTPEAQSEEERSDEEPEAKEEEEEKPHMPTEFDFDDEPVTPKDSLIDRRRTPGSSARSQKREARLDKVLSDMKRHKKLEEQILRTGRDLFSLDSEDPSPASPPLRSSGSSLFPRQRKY
UniProt Q9BWD1: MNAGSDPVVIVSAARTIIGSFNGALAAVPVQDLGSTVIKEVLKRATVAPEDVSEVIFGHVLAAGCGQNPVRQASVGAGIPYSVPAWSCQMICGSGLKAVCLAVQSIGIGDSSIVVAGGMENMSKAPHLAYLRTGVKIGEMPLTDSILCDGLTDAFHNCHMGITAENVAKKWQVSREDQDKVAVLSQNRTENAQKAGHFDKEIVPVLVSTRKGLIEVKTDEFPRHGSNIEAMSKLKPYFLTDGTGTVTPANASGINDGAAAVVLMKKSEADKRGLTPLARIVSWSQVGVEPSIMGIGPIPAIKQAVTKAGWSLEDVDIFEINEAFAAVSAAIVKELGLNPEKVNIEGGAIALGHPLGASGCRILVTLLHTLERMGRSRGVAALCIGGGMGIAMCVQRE
UniProt Q99442: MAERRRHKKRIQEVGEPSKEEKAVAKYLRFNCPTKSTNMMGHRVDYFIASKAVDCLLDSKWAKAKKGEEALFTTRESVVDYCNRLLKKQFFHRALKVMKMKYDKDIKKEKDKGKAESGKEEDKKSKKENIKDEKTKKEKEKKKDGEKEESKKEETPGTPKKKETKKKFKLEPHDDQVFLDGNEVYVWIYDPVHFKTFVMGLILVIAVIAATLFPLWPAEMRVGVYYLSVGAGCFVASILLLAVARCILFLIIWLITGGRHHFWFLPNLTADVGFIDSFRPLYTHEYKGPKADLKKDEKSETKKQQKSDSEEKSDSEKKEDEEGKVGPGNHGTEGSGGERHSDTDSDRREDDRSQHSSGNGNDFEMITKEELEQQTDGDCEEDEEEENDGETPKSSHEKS
UniProt Q9BTD8: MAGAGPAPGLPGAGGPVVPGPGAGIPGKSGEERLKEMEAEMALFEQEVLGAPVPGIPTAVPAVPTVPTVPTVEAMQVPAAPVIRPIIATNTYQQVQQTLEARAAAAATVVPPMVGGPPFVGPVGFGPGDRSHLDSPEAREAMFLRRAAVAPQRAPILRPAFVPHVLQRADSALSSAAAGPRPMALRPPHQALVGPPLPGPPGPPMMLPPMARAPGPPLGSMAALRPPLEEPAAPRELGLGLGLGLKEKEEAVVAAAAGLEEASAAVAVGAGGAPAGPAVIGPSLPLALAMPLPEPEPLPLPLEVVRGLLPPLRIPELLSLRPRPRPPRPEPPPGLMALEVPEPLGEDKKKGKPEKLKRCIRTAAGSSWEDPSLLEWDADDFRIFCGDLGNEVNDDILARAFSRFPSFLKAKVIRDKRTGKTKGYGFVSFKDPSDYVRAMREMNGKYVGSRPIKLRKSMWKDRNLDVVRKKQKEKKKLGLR
UniProt Q96S59, whole entry: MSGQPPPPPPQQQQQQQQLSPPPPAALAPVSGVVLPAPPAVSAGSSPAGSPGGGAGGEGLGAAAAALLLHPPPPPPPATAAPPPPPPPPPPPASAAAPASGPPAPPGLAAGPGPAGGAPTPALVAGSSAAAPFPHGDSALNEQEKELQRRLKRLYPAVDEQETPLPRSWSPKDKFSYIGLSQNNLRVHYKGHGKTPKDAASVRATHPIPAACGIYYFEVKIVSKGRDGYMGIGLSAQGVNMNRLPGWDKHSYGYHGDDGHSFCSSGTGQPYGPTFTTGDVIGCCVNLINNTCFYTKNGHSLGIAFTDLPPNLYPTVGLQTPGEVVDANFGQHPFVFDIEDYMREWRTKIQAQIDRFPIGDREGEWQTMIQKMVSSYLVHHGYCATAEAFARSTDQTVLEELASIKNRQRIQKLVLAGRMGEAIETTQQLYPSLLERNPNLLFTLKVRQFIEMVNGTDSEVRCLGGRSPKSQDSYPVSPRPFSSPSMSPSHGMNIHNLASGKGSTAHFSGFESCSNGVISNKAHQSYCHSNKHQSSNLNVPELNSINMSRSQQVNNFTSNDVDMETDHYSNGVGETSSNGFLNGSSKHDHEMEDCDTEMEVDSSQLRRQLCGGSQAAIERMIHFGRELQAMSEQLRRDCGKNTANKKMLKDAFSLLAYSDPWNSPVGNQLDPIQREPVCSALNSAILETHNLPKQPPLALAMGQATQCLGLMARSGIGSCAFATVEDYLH
UniProt Q99962: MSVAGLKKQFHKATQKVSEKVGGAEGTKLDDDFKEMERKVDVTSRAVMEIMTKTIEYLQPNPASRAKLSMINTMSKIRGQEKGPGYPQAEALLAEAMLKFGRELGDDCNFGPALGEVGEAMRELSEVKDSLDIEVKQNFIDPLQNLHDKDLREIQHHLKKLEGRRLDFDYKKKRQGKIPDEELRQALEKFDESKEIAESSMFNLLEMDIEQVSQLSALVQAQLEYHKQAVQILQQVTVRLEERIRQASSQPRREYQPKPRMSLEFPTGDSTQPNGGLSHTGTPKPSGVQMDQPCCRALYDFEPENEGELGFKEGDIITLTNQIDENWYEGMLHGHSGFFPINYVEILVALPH
UniProt Q9BQA1, whole entry: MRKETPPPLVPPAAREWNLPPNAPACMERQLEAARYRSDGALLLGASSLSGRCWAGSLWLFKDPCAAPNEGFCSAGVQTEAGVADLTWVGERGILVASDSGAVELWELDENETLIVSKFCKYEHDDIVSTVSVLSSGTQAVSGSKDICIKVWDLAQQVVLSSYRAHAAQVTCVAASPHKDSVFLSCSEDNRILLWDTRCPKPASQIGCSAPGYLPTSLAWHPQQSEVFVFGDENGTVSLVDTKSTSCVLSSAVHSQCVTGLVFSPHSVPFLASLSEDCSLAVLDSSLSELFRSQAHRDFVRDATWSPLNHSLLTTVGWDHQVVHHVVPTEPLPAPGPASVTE
UniProt Q99575: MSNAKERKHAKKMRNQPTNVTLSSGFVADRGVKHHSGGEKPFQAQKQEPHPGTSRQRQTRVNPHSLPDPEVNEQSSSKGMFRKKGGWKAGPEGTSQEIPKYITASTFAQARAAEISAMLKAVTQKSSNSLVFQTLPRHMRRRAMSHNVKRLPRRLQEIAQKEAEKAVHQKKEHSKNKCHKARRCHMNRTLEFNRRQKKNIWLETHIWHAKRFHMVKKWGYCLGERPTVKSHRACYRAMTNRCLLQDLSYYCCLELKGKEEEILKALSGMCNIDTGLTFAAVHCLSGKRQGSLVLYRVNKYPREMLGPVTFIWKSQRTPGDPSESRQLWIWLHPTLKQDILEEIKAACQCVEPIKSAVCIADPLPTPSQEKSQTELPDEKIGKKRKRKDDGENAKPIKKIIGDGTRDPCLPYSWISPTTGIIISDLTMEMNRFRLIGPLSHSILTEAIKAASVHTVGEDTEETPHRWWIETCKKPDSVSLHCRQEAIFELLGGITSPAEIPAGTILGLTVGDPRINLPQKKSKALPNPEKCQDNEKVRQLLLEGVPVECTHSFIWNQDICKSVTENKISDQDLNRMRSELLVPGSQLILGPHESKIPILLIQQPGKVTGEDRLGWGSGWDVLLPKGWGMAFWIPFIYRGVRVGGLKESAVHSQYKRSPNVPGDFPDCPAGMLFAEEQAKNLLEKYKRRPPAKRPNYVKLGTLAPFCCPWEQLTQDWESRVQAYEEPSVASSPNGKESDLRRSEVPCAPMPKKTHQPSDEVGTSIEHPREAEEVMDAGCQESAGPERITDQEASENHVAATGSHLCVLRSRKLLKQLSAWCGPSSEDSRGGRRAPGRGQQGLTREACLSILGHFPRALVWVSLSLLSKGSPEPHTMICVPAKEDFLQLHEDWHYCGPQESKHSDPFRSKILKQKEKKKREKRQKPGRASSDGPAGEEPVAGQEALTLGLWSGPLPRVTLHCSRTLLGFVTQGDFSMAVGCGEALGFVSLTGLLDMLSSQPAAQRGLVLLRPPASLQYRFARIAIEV
UniProt Q99828: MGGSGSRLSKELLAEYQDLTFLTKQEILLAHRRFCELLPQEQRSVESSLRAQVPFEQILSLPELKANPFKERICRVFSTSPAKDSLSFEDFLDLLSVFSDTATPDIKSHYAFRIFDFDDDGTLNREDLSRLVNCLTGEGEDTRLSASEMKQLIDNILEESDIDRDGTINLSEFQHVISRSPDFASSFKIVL
UniProt Q9BV44: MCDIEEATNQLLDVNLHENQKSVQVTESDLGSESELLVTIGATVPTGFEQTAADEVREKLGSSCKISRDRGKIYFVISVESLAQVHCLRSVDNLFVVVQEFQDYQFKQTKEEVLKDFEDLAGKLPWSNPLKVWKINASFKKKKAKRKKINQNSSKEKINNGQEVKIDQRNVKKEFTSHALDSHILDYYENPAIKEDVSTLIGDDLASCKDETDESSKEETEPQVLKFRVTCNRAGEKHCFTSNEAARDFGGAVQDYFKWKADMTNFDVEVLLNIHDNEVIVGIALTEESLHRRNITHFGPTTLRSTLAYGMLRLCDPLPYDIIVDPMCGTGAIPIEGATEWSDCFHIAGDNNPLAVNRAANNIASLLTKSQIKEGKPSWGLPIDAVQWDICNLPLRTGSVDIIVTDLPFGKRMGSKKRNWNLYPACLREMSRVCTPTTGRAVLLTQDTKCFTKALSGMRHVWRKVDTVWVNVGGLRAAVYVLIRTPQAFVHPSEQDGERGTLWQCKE
UniProt Q9BXW9: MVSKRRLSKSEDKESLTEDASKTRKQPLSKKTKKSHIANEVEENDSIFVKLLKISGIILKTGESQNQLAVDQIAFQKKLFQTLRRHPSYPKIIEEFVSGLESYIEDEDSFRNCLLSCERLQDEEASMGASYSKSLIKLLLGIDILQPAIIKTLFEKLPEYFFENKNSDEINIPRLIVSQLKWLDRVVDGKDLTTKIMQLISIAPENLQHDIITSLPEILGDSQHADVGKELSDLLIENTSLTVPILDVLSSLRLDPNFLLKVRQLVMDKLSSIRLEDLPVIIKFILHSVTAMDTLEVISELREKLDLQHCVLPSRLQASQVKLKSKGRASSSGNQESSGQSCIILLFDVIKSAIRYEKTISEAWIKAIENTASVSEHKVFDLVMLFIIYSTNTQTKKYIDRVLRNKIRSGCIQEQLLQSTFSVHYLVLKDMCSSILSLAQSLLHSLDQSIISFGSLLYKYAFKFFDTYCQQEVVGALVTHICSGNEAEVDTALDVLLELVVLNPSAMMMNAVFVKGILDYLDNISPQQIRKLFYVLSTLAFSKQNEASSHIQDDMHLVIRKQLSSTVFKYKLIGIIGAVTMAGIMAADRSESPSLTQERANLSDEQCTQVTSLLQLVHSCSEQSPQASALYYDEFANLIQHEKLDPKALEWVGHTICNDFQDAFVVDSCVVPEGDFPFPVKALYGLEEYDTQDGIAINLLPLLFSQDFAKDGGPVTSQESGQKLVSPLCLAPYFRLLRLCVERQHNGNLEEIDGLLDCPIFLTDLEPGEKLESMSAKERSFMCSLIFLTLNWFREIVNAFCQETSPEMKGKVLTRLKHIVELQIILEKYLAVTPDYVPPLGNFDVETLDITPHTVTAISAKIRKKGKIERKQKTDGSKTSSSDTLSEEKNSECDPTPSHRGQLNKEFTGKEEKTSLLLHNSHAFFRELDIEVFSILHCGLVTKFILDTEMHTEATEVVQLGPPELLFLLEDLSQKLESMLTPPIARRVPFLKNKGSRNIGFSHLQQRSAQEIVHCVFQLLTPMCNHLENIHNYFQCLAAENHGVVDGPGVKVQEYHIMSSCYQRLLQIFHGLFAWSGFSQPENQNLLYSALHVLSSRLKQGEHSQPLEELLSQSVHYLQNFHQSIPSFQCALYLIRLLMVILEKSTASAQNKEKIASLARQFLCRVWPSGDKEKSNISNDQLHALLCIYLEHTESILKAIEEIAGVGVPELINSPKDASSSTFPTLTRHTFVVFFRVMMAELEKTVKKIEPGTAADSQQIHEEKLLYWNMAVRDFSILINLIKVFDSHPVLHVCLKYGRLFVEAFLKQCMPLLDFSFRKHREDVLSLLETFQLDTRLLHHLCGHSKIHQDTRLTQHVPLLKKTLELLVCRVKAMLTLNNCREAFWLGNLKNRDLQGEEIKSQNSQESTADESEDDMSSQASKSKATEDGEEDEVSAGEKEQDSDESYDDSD
UniProt Q9BYE7: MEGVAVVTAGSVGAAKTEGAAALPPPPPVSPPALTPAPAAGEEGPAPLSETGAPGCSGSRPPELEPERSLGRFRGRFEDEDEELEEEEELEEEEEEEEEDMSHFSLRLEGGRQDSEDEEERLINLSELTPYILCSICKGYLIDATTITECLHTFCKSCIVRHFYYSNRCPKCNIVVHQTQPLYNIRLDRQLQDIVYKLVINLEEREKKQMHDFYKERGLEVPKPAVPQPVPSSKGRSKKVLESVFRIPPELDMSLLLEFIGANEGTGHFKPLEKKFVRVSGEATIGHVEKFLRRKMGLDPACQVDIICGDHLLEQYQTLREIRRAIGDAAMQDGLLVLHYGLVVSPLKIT
UniProt Q9BT73: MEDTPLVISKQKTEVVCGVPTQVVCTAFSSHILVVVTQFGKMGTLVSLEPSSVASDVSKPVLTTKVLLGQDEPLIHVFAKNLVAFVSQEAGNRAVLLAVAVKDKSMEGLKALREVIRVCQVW

Compound: Nc1ncnc2c1ncn2[C@@H]1O[C@H](COP(=O)(O)OP(=O)(O)NP(=O)(O)O)[C@@H](O)[C@H]1O [adenylyl imidodiphosphate]
Experiment: NP40-soluble protein abundance relative to vehicle (solubility fold change) (ratio); higher = more soluble protein in presence of AMP-PNP
In short: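 Crude Jurkat lysate, prepared by Dounce homogenisation, was exposed to eight concentrations from 0.1 to 10 mM for 10 min at room temperature and then 3 min at 37 °C. Solubilisation used 0.8% NP40 with benzonase for 60 min at 4 °C, followed by ultracentrifugation and TMT labelling of the supernatant for LC-MS/MS. After vsn normalisation of intensities, each value is the fold change against the detergent-processed vehicle within each replicate, across three independent experiments.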

Target	NP40-soluble protein abundance (concentration: 0.1mM)	NP40-soluble protein abundance (concentration: 0.5mM)
UniProt Q99504 and related entries	0.97 ± 0.053	1.02 ± 0.033
UniProt Q9BQI0 and related entries	0.998 ± 0.036	1.02 ± 0.056
UniProt Q9BTK6	0.97453 ± 3.5e-05	0.986 ± 0.013
UniProt Q9BSJ2 and related entries	1.03 ± 0.027	1.02 ± 0.019
UniProt Q9BW91 and related entries	0.968 ± 0.035	0.989 ± 0.015
UBAC1 (UniProt Q9BSL1)	0.969 ± 0.033	0.964 ± 0.018
UniProt Q9BUB5 and related entries	1.02 ± 0.038	1.04 ± 0.044
UniProt Q9BRR9-2|Q9BRR9-4|Q9BRR9-5|R4GN15	0.979 ± 0.012	0.95 ± 0.022
TM9SF2 (UniProt Q99805)	0.97 ± 0.08	0.97 ± 0.091
ACAT2 (UniProt Q9BWD1)	0.971 ± 0.021	0.993 ± 0.031
UniProt Q9BX66-10|Q9BX66-12|Q9BX66-4|Q9BX66-5|Q9BX66-6|Q9BX66-8|Q9BX66-9	0.993 ± 0.014	0.969 ± 0.023
SEC62 (UniProt Q99442)	1 ± 0.042	0.971 ± 0.061
PSMB7 (UniProt Q99436)	0.998 ± 0.023	0.976 ± 0.063
PAFAH2 (UniProt Q99487)	1.05 ± 0.055	0.993 ± 0.033
UniProt Q96TA2 and related entries	1.01 ± 0.022	0.985 ± 0.0091
GNB1L (UniProt Q9BYB4)	0.985 ± 0.013	0.974 ± 0.029
HEMGN (UniProt Q9BXL5)	0.983 ± 0.02	1.01 ± 0.044
UniProt Q9BTD8 and related entries	1.03 ± 0.021	1.01 ± 0.029
UniProt Q9BYD6 and related entries	1.04 ± 0.097	1.06 ± 0.023
TXN2 (UniProt Q99757)	0.951 ± 0.051	1.01 ± 0.034

Target	NP40-soluble protein abundance (concentration: 0.1mM)	NP40-soluble protein abundance (concentration: 0.5mM)
UniProt Q96S66 and related entries	0.953 ± 0.031	0.99 ± 0.019
UniProt Q9BZ23 and related entries	0.99 ± 0.015	0.986 ± 0.022
RANBP9 (UniProt Q96S59)	0.974 ± 0.061	0.982 ± 0.039
SH3GL2 (UniProt Q99962)	0.99 ± 0.028	1.02 ± 0.013
UniProt Q96T23 and related entries	0.982 ± 0.016	1.02 ± 0.033
MRPL13 (UniProt Q9BYD1)	1.02 ± 0.037	1 ± 0.065
TMEM109 (UniProt Q9BVC6)	0.993 ± 0.033	1.03 ± 0.047
CORO1B (UniProt Q9BR76)	1.01 ± 0.014	1.01 ± 0.047
WDR77 (UniProt Q9BQA1)	1.01 ± 0.032	1 ± 0.012
UniProt Q99729-3	0.959 ± 0.068	0.997 ± 0.062
POP1 (UniProt Q99575)	0.996 ± 0.052	0.965 ± 0.058
UniProt Q99828 and related entries	0.9917 ± 0.0076	0.99 ± 0.025
DDA1 (UniProt Q9BW61)	1.02 ± 0.039	1.03 ± 0.02
FUT8 (UniProt Q9BYC5)	0.98 ± 0.028	0.99 ± 0.011
UniProt Q9BSJ8 and related entries	1.01 ± 0.035	0.977 ± 0.055
UniProt Q9BX40 and related entries	1.01 ± 0.038	1.04 ± 0.025
TTC1 (UniProt Q99614)	1 ± 0.027	0.999 ± 0.02
THUMPD3 (UniProt Q9BV44)	0.953 ± 0.023	0.957 ± 0.015
UniProt Q9BXW9 and related entries	1 ± 0.019	1 ± 0.034
PFDN5 (UniProt Q99471)	1.02 ± 0.048	1.05 ± 0.094

Not a retest: entries from further up.
Target	NP40-soluble protein abundance (concentration: 0.1mM)	NP40-soluble protein abundance (concentration: 0.5mM)
UniProt Q9BXW9 and related entries	1 ± 0.019	1 ± 0.034
PFDN5 (UniProt Q99471)	1.02 ± 0.048	1.05 ± 0.094

(listing goes on)

Target	NP40-soluble protein abundance (concentration: 0.1mM)	NP40-soluble protein abundance (concentration: 0.5mM)
PRPF18 (UniProt Q99633)	0.992 ± 0.023	1 ± 0.018
UniProt Q9BUK6 and related entries	0.974 ± 0.048	0.996 ± 0.046
SH3GL1 (UniProt Q99961)	0.973 ± 0.034	1 ± 0.037
PCGF6 (UniProt Q9BYE7)	0.992 ± 0.034	1.01 ± 0.037
UniProt Q96RT1 and related entries	0.998 ± 0.04	0.983 ± 0.042
UniProt Q9BVP2 and related entries	1.04 ± 0.028	1.04 ± 0.061
PSMG3 (UniProt Q9BT73)	1.02 ± 0.05	0.9906 ± 0.0092
NIPSNAP1 (UniProt Q9BPW8)	1.03 ± 0.046	0.996 ± 0.096
SMAD5 (UniProt Q99717)	0.996 ± 0.046	1.01 ± 0.026
UniProt Q9BS26	1.02 ± 0.015	1.01 ± 0.018
CCNL2 (UniProt Q96S94)	0.99 ± 0.02	0.964 ± 0.03
UniProt Q9BTC8 and related entries	1.01 ± 0.041	1.02 ± 0.023
UniProt Q9BXS6 and related entries	0.958 ± 0.013	0.954 ± 0.06
AGPAT1 (UniProt Q99943)	1 ± 0.059	0.976 ± 0.015
IFT140 (UniProt Q96RY7)	1.02 ± 0.035	0.968 ± 0.037
UniProt Q96SK2 and related entries	1.01 ± 0.02	1.03 ± 0.025
NAPG (UniProt Q99747)	0.987 ± 0.029	1.01 ± 0.029
MRPS26 (UniProt Q9BYN8)	1.02 ± 0.057	1.09 ± 0.14
UniProt Q96TA1 and related entries	0.981 ± 0.029	0.95 ± 0.024
UniProt Q99490-2|F8VVT9 and related entries	0.997 ± 0.011	0.999 ± 0.024
